This is one part of the list.
Columns and labels:
Experiment in all cases: log2 fold change, soluble protein after heating vs DMSO (PISA); higher = thermal stabilisation; K562 cells, 10 uM, 30 min; active = over 0.2 and 3.5 SD of the protein, either way, in both replicates (recomputed)
[1] = compound: CC1=C(C=C(C=C1)NC(=O)C2=CC(=CC=C2)C(C)(C)C#N)NC3=CC4=C(C=C3)N=CN(C4=O)C
How it was run: (§1)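 K562 cells (2×10^6 cells/mL) were treated with 10 μM compound for 30 min, and aliquots were heated for 3 min over 48°C-58°C. Pooled aliquots were extracted in PBS with 0.5% NP-40 at 4°C, and the supernatant after 21,000xg for 90 min was measured by TMTpro 16plex LC-MS/MS with channel sums equalised. Reported thermal stability, relative to control samples and from duplicates, is a log2 fold change.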

Sequences of proteins named here, by UniProt entry; tags and fusion partners are left off. A change or cut given only in a name is not applied to a line headed by its entry.
UniProt P08579, whole entry, looked up: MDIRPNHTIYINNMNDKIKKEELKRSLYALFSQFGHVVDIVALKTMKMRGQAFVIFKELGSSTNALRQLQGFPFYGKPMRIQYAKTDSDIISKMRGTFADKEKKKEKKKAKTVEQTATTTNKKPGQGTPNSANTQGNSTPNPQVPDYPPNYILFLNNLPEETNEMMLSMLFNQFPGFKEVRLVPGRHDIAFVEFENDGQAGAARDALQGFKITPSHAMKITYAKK
UniProt Q9Y5X1: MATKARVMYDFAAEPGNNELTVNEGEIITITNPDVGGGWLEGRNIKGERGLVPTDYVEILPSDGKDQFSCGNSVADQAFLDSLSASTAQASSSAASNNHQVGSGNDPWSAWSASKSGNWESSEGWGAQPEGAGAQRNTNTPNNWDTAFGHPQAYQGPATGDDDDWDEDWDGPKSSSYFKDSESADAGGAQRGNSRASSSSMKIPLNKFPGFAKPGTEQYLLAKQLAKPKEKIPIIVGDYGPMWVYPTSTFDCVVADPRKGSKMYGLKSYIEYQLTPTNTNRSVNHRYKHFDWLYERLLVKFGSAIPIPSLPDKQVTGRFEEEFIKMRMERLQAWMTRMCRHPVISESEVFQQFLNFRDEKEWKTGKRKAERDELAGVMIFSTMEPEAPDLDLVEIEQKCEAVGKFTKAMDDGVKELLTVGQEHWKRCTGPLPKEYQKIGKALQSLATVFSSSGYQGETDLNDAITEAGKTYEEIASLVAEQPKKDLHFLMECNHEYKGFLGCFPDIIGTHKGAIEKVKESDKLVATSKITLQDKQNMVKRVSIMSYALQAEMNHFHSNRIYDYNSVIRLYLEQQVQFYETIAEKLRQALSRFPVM
UniProt Q15036: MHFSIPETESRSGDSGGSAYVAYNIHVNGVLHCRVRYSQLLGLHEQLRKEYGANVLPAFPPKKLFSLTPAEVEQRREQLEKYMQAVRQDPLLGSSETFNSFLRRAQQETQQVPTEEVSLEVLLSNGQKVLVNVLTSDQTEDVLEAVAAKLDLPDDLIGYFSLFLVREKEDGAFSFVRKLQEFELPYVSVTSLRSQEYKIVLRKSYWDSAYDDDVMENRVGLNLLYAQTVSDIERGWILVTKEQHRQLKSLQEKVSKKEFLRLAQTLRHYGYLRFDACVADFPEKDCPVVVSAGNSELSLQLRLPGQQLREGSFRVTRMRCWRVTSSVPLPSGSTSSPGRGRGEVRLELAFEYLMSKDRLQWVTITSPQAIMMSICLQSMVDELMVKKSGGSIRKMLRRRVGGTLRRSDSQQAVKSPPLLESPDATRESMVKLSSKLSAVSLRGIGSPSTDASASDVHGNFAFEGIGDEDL
UniProt Q96Q15: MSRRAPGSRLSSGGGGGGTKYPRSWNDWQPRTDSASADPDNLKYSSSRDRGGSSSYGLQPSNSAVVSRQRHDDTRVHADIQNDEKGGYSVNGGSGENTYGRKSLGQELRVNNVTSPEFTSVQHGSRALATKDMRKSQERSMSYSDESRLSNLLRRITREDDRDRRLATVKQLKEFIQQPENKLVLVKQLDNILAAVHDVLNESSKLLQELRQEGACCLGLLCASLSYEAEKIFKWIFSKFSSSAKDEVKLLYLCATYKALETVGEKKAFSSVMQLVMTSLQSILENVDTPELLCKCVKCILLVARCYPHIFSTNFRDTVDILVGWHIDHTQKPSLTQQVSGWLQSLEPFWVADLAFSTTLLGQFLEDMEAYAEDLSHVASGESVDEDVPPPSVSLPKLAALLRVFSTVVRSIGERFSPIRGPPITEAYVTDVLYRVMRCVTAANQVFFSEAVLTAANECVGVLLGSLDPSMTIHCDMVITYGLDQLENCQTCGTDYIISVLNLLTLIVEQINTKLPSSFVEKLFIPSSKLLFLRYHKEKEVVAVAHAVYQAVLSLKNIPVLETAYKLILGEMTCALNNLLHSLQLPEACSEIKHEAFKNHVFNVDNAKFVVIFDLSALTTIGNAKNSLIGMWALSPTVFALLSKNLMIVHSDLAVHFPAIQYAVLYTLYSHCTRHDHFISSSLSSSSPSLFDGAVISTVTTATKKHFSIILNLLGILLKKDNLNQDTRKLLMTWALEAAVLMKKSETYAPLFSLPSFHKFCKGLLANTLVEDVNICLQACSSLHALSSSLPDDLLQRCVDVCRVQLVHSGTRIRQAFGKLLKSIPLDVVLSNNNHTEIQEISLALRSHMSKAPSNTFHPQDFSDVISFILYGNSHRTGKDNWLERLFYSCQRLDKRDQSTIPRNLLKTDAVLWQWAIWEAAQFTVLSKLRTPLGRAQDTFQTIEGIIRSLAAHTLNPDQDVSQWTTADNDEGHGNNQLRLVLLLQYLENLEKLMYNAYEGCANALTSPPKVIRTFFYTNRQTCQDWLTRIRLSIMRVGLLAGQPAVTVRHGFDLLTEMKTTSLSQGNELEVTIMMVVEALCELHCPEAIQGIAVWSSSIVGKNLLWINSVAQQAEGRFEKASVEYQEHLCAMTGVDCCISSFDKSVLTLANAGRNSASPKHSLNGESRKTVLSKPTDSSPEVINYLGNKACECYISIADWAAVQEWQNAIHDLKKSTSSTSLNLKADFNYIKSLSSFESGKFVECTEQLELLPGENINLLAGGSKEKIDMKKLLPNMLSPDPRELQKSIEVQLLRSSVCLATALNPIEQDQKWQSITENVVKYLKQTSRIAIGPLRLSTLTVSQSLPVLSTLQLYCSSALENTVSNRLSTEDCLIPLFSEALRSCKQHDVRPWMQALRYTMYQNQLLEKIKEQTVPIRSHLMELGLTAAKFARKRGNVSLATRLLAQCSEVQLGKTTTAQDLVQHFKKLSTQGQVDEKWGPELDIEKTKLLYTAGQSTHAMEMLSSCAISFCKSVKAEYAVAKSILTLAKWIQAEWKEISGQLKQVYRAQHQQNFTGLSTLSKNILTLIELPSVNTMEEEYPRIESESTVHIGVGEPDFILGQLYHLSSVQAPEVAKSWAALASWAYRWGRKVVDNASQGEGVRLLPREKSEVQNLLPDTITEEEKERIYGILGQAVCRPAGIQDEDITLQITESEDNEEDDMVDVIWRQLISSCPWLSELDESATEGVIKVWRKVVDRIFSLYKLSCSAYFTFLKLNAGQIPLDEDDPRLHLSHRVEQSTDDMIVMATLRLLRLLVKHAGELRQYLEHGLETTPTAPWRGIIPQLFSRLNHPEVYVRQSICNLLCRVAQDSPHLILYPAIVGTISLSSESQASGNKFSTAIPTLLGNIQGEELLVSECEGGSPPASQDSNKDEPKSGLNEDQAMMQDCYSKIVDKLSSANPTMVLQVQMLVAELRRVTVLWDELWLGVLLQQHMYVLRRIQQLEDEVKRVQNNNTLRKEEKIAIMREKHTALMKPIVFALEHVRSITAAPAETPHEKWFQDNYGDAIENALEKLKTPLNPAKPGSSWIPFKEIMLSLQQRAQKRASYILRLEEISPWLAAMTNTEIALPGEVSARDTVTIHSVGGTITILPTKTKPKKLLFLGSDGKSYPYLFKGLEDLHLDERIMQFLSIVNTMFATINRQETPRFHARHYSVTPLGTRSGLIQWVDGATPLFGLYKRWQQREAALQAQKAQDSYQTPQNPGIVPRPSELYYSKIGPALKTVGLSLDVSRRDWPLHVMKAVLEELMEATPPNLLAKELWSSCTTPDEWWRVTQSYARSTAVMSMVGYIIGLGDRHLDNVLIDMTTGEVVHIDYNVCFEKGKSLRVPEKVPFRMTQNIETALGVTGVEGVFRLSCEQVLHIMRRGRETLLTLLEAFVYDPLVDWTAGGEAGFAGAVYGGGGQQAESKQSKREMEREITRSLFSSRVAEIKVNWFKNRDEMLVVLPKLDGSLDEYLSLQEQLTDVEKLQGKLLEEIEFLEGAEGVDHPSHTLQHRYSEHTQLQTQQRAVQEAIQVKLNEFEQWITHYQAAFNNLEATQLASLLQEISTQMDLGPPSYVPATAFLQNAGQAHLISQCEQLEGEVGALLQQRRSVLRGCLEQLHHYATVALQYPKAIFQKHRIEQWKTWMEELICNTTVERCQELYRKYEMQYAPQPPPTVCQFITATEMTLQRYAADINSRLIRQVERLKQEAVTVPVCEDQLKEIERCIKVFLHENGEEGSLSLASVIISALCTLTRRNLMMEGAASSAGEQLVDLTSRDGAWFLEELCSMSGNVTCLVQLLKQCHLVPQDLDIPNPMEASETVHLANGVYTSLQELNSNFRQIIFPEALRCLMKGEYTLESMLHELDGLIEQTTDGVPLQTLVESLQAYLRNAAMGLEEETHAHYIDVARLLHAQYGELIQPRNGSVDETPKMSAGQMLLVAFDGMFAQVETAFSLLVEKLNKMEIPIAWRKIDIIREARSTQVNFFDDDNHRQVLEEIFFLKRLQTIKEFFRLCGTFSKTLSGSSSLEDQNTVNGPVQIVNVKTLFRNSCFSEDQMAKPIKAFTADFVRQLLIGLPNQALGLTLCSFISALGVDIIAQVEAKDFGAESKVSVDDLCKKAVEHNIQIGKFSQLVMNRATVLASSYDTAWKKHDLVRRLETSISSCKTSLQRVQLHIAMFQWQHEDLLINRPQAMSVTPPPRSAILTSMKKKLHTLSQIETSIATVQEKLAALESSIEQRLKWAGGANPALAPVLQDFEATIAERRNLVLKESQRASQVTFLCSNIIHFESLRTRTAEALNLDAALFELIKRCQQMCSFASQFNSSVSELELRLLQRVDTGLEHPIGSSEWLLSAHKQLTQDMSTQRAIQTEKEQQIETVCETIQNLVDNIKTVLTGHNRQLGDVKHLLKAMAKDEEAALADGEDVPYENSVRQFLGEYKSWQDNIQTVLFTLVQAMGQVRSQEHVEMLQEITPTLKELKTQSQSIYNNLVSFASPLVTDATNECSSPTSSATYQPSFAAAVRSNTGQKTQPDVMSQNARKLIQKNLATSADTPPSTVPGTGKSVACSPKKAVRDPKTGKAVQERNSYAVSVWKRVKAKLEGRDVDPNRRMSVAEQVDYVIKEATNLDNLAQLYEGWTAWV
UniProt P51532, whole entry, looked up: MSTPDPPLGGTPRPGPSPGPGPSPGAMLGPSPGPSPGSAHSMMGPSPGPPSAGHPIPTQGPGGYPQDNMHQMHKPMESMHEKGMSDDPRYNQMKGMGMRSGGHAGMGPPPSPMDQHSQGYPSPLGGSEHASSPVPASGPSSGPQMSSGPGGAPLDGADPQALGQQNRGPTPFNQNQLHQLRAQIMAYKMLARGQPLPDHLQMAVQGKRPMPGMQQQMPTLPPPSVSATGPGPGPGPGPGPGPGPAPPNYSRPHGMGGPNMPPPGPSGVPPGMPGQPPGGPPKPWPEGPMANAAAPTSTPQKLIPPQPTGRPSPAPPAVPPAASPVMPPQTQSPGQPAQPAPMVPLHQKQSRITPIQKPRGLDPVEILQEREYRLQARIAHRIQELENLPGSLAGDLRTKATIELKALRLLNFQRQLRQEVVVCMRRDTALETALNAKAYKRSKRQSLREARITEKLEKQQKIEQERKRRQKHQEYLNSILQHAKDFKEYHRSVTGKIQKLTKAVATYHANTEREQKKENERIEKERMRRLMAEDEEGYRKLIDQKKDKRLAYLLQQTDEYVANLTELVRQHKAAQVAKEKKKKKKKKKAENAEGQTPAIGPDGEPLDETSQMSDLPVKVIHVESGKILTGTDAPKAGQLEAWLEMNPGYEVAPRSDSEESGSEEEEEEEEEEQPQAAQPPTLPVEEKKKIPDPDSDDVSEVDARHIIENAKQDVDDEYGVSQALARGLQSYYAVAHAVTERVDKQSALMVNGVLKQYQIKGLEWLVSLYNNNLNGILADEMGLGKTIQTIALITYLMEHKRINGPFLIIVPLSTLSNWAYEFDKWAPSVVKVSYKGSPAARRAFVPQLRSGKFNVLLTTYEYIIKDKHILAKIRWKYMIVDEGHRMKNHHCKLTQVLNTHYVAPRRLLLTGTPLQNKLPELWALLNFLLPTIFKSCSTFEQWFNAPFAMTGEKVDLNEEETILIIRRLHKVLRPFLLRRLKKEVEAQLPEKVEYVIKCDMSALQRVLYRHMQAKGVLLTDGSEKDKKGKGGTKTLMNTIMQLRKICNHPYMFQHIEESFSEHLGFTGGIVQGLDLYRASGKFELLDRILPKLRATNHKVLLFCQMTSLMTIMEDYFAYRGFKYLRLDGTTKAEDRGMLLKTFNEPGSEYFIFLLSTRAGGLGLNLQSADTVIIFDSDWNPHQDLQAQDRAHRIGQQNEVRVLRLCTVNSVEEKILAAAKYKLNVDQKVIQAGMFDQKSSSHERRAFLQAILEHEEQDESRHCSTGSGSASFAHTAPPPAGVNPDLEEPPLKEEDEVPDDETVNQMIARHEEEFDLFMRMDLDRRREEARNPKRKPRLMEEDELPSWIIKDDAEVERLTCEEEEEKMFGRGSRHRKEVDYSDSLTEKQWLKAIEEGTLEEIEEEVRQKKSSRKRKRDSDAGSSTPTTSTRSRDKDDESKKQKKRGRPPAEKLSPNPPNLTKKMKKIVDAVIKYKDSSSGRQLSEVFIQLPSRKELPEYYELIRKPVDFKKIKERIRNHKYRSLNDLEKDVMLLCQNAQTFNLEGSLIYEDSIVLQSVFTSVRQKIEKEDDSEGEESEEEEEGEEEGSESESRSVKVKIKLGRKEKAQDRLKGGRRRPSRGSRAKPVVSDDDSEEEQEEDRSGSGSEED

[2] = compound: CC1=C(C=C(C=C1)NC(=O)C2=CC(=CC=C2)N(C)C)NC(=O)C3=CC=C(C=C3)O
How it was run: as §1

[3] = compound: CC1=CC=C(C=C1)SC2=C3C=C(SC3=CN=C2)C(=O)N
How it was run: as §1

[4] = compound: CC1=NC(=CC=C1)C2=C(N=C(N2)C(C)(C)C)C3=CC4=NC=CN=C4C=C3
How it was run: as §1

Nexturastat A = compound: CCCCN(Cc1ccc(C(=O)NO)cc1)C(=O)Nc1ccccc1 [Nexturastat A]
How it was run: as §1

vemurafenib = compound: CCCS(=O)(=O)Nc1ccc(F)c(C(=O)c2c[nH]c3ncc(-c4ccc(Cl)cc4)cc23)c1F [vemurafenib]
How it was run: as §1

[5] = compound: CCCS(=O)(=O)Nc1ccc(F)c(C(=O)c2c[nH]c3ncc(Cl)cc23)c1F
How it was run: as §1

[6] = compound: CCCc1cc(C)[nH]c(=O)c1CNC(=O)c1cc(-c2ccnc(N3CCN(C)CC3)c2)cc2c1cnn2C(C)C
How it was run: as §1

givinostat = compound: CCN(CC)Cc1ccc2cc(COC(=O)Nc3ccc(C(=O)NO)cc3)ccc2c1 [givinostat]
How it was run: as §1

barasertib = compound: CCN(CCCOc1ccc2c(Nc3cc(CC(=O)Nc4cccc(F)c4)[nH]n3)ncnc2c1)CCOP(=O)(O)O [barasertib]
How it was run: as §1

[7] = compound: CC[C@@H]1C(=O)N(C)c2cnc(Nc3ccc(C(=O)NC4CCN(C)CC4)cc3OC)nc2N1C1CCCC1
How it was run: as §1

volasertib = compound: CC[C@@H]1C(=O)N(C)c2cnc(Nc3ccc(C(=O)N[C@H]4CC[C@H](N5CCN(CC6CC6)CC5)CC4)cc3OC)nc2N1C(C)C [volasertib]
How it was run: as §1

[8] = compound: CC[C@H](C)N1C=C(C2=C(C=C(C=C21)C3=CN=C(C=C3)N4CCNCC4)C(=O)NCC5=C(C=C(NC5=O)C)C)C
How it was run: as §1

epoxomicin = compound: CC[C@H](C)[C@@H](C(=O)N[C@@H]([C@@H](C)O)C(=O)N[C@@H](CC(C)C)C(=O)[C@]1(CO1)C)NC(=O)[C@H]([C@@H](C)CC)N(C)C(=O)C [epoxomicin]
How it was run: as §1

[9] = compound: CCn1cc(-c2ccnc3[nH]c(-c4cccc(CN(C)C)c4)cc23)c(-c2ccc(NC(=O)N(C)C)cc2)n1
How it was run: as §1

[10] = compound: CN(C)CC(=O)Nc1ccc2[nH]c(=O)c3ccccc3c2c1
How it was run: as §1

[11] = compound: CN1C2=C(C3=C1C(=O)N(N=C3)CC4=CC(=CC=C4)N)SC(=C2)S(=O)C
How it was run: as §1

[12] = compound: CN1CCC(CNc2ccc3ncc(-c4cccc(OC(F)(F)F)c4)n3n2)CC1
How it was run: as §1

[13] = compound: CCn1c(C(=O)N(C2CC2)C2CC2)cc2c3c(ncn3C)c(Nc3cc(C)n(C)n3)nc21
How it was run: as §1

rosiglitazone = compound: CN(CCOC1=CC=C(C=C1)C[C@H]2C(=O)NC(=O)S2)C3=CC=CC=N3 (racemic) [rosiglitazone]
How it was run: as §1

Measured: log2 fold change

SNRPB2 (UniProt P08579)
inactive: [1] -0.016 | [2] 0.007 | [3] -0.026 | [4] -0.014 | Nexturastat A -0.015 | vemurafenib -0.036 | [5] -0.042 | [6] -0.048 | givinostat -0.051 | barasertib -0.056 | [7] 0.176 | volasertib 0.174 | [8] -0.069 | epoxomicin -0.05 | [9] 0.069 | [10] -0.063 | [11] -0.008 | [12] 0.098

SNX9 (UniProt Q9Y5X1)
active: volasertib -0.309
inactive: [1] 0.018 | [2] -0.031 | [3] -0.002 | [4] 0.03 | Nexturastat A 0.048 | vemurafenib 0.006 | [5] 0.041 | [6] -0.027 | givinostat -0.099 | barasertib 0.007 | [7] -0.125 | [8] 0.04 | epoxomicin -0.02 | [9] -0.021 | [10] -0.006 | [11] 0.009 | [12] -0.137

SNX17 (UniProt Q15036)
inactive: [1] -0.043 | [2] 0.036 | [3] 0.095 | [4] -0.058 | Nexturastat A 0.102 | vemurafenib 0.053 | [5] 0.003 | givinostat 0.246 | barasertib 0.111 | [7] 0 | volasertib -0.143 | [8] -0.172 | epoxomicin -0.007 | [13] 0.017 | [9] 0.049 | [10] 0.034 | rosiglitazone 0.008 | [11] 0.205 | [12] 0.066

SMYD2 (UniProt Q9NRG4)
inactive: [1] -0.041 | [2] -0.02 | [3] 0.072 | [4] 0.021 | Nexturastat A 0.113 | vemurafenib 0.135 | [5] 0.099 | [6] 0.177 | givinostat 0.053 | barasertib -0.043 | volasertib -0.489 | epoxomicin 0.035 | [13] -0.034 | [9] 0.065 | [10] 0.047 | rosiglitazone -0.033 | [11] 0.068 | [12] -0.049

SON isoform 9 (UniProt P18583)
inactive: [1] 0.01 | [2] 0.146 | [3] -0.103 | [4] -0.051 | Nexturastat A -0.055 | vemurafenib 0.002 | [5] 0.101 | givinostat 0.244 | barasertib -0.033 | [7] 0.109 | volasertib -0.251 | [8] 0.067 | epoxomicin -0.173 | [13] 0.054 | [9] 0.084 | [10] 0.017 | rosiglitazone 0.114 | [11] 0.188 | [12] 0.209

SNW1 (UniProt Q13573)
inactive: [1] -0.035 | [2] 0.041 | [3] -0.017 | [4] 0 | Nexturastat A 0.074 | vemurafenib -0.04 | [5] -0.017 | [6] -0.045 | givinostat -0.041 | barasertib -0.02 | [7] 0.094 | volasertib 0.078 | [8] -0.052 | epoxomicin -0.012 | [9] 0.044 | [10] -0.027 | [11] 0 | [12] 0.078

SMG1 (UniProt Q96Q15)
active: volasertib -0.391
inactive: [1] -0.068 | [2] -0.048 | [3] 0.031 | [4] 0.012 | Nexturastat A 0.045 | vemurafenib 0.029 | [5] 0.077 | [6] -0.096 | givinostat 0.05 | barasertib 0.075 | [7] -0.137 | [8] 0.158 | epoxomicin 0.024 | [9] 0.05 | [10] 0.046 | [11] 0.129 | [12] -0.02

SMARCA5 (UniProt O60264)
inactive: [1] 0.042 | [2] -0.041 | [3] 0.038 | [4] 0.014 | Nexturastat A 0.107 | vemurafenib 0.085 | [5] 0.129 | [6] 0.032 | givinostat 0.149 | barasertib 0.109 | [7] -0.242 | volasertib -0.333 | [8] 0.045 | epoxomicin 0.092 | [9] -0.06 | [10] 0.053 | [11] 0.121 | [12] 0.076

SP1 (UniProt P08047)
inactive: [1] 0.023 | [2] -0.068 | [3] -0.067 | [4] -0.033 | Nexturastat A 0.034 | vemurafenib -0.017 | [5] -0.069 | [6] -0.018 | givinostat -0.114 | barasertib 0.011 | [7] 0.047 | volasertib 0.102 | [8] 0 | epoxomicin -0.032 | [9] -0.003 | [10] -0.042 | [11] 0.006 | [12] -0.063

SNX6 (UniProt Q9UNH7)
inactive: [1] -0.04 | [2] -0.016 | [3] 0.019 | [4] 0.021 | Nexturastat A -0.025 | vemurafenib -0.003 | [5] 0.076 | [6] 0.006 | givinostat 0.077 | barasertib 0.079 | [7] -0.142 | volasertib -0.047 | [8] 0.117 | epoxomicin 0.015 | [9] -0.131 | [10] 0.005 | [11] 0.016
active: [12] -0.77

SMARCA4 (UniProt P51532)
inactive: [1] 0.039 | [2] -0.111 | [3] -0.296 | [4] -0.028 | Nexturastat A 0.351 | vemurafenib -0.261 | [5] -0.556 | [6] -0.084 | givinostat 0.159 | barasertib 0.137 | [7] 0.019 | volasertib 0.121 | epoxomicin 0 | [9] 0.119 | [10] -0.191 | [11] 0.177 | [12] -0.046

SMG5 (UniProt Q9UPR3)
inactive: [1] -0.12 | [2] 0.014 | [3] 0.141 | [4] 0.024 | Nexturastat A 0.185 | vemurafenib 0.061 | [5] 0.031 | [6] -0.271 | givinostat 0 | barasertib 0.018 | volasertib -0.32 | [8] 0.077 | epoxomicin -0.066 | [13] 0.054 | [10] 0.052 | rosiglitazone 0.032 | [11] 0.29

SNRNP40 (UniProt Q96DI7)
inactive: [1] 0.01 | [2] 0.001 | [3] -0.06 | [4] -0.023 | Nexturastat A 0 | vemurafenib -0.027 | [5] -0.046 | [6] -0.037 | givinostat -0.035 | barasertib -0.04 | [7] 0.067 | volasertib 0.059 | [8] 0.026 | epoxomicin -0.05 | [9] -0.033 | [10] -0.012 | [11] -0.029
active: [12] 0.261

SLC9A6 isoform 2 (UniProt Q92581)
inactive: [1] -0.035 | [2] 0.024 | [3] -0.002 | [4] -0.012 | Nexturastat A -0.061 | vemurafenib 0.024 | [5] 0 | [6] -0.063 | givinostat -0.01 | barasertib 0.018 | [7] 0.047 | volasertib -0.081 | [8] 0.009 | epoxomicin -0.013 | [9] -0.003 | [10] -0.026 | [11] -0.039 | [12] -0.071

SOAT1 (UniProt P35610)
inactive: [1] 0.259 | [2] -0.044 | [3] 0.038 | [4] -0.03 | Nexturastat A 0.002 | vemurafenib -0.036 | [5] -0.015 | [6] -0.137 | givinostat 0.152 | barasertib 0.001 | [7] -0.017 | volasertib 0.053 | [8] -0.094 | epoxomicin 0.029 | [9] 0.013 | [10] -0.04 | [11] -0.051 | [12] -0.09

SMARCA1 (UniProt P28370)
inactive: [1] 0.013 | [2] 0.018 | [3] 0 | [4] -0.046 | Nexturastat A 0.089 | vemurafenib 0.134 | [5] 0.046 | [6] -0.062 | givinostat 0.172 | barasertib 0.028 | [7] -0.1 | volasertib -0.457 | epoxomicin 0.023 | [13] -0.008 | [9] -0.054 | [10] -0.043 | rosiglitazone 0 | [11] 0.024 | [12] 0.031

SMARCAD1 isoform 2 (UniProt Q9H4L7)
active: volasertib -0.378
inactive: [1] 0.028 | [2] -0.072 | [3] -0.026 | [4] 0.064 | Nexturastat A -0.028 | vemurafenib 0.192 | [5] 0.101 | [6] 0.035 | givinostat 0.127 | barasertib 0.089 | [7] -0.085 | [8] 0.057 | epoxomicin 0.046 | [9] -0.1 | [10] 0.04 | [11] -0.037 | [12] -0.1

Fetched one by one from the list above (2):
SMARCA1 (UniProt P28370)
inactive: [1] 0.013 | [2] 0.018 | [3] 0 | [4] -0.046 | Nexturastat A 0.089 | vemurafenib 0.134 | [5] 0.046 | [6] -0.062 | givinostat 0.172 | barasertib 0.028 | [7] -0.1 | volasertib -0.457 | epoxomicin 0.023 | [13] -0.008 | [9] -0.054 | [10] -0.043 | rosiglitazone 0 | [11] 0.024 | [12] 0.031

SLC9A6 isoform 2 (UniProt Q92581)
inactive: [1] -0.035 | [2] 0.024 | [3] -0.002 | [4] -0.012 | Nexturastat A -0.061 | vemurafenib 0.024 | [5] 0 | [6] -0.063 | givinostat -0.01 | barasertib 0.018 | [7] 0.047 | volasertib -0.081 | [8] 0.009 | epoxomicin -0.013 | [9] -0.003 | [10] -0.026 | [11] -0.039 | [12] -0.071

Source: the supplement of paper PMC10849652
